# Measurements published in publication PMC7109056.
# For at least one entry, the source does not settle the construct or the ends of the probe.
# System: MdbHLH3-His (Malus domestica)
# Experiment: EMSA
# Settings: unlabeled same-sequence probe competes in proportion to amount; LightShift chemiluminescent EMSA kit (Thermo), biotin-labeled probe; pH and temperature not stated (as in Hu et al.); recombinant protein; protein details: His; label: biotin (probe), unlabeled as competitor
sequence,measurement,value
GTTTCGTAAAATTTGTTTTCATTTGTTGGTGGAGAAAAG (double strand) [MdDEP1 promoter E-box2 probe],binding result,binds
